{
  "source": "paper PMC7819943",
  "about": "“Rice protein-binding microarrays: a tool to detect cis-acting elements near promoter regions in rice”",
  "note": "The list shows a part of the results.",
  "data": [
    {"molecular_target": "T1, OsSMF1 (Oryza sativa, UniProt Q6ZLB0 1-436)", "T1 sequence": "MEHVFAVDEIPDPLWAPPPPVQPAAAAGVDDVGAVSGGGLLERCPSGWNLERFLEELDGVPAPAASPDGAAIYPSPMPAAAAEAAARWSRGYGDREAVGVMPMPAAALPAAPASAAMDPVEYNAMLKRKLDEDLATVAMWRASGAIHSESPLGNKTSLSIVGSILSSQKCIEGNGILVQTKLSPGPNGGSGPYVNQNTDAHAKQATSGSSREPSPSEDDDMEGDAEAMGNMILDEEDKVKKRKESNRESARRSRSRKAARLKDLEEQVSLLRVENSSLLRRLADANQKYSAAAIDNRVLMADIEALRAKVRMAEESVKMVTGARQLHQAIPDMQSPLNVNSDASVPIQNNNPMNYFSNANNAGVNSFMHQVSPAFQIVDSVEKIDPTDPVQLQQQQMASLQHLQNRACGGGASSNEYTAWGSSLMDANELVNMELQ", "experiment": "protein-binding microarray (RPBM); PBS, 2% BSA, 51.3 ng/ul salmon testes DNA, 50 uM zinc acetate, 200 nM TF, 25 C, 1 h; high values mean tight binding", "settings": "protein: recombinant; tags: N-terminal polyhistidine and DsRed monomer fusion (pET32a); chain copies: 2; label: CyDye5-dUTP incorporated in the synthesized complementary strand; 3' TTTTT single-stranded linker to array surface; dsDNA, one strand shown", "method_in_brief": "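Ni–NTA purification followed expression in E. coli BL21-CodonPlus of transcription factors fused N-terminally to a polyhistidine tag and DsRed. At 200 nM in PBS with 2% BSA, salmon testes DNA and 50 µM zinc acetate, the protein was incubated for 1 h at 25 °C with a custom Agilent array that had been primer-extended with Cy5-dUTP and blocked with 2% BSA. After washing, the array was read on an Axon 4000B scanner. The binding signal is per-feature fluorescence intensity in arbitrary units.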", "values": [
      {"sequence": "TTCCCCAAGTTCACAACCTGTACGTGTGTGTGGTACGTAGCGGAGTCACCTAGTGCAG", "binding signal": "4180 fluorescence intensity (a.u.)"},
      {"sequence": "TATATATTATACCATTAATGACTGATCCTACCCTCTCATACGGAGTCACCTAGTGCAG", "binding signal": "3290 fluorescence intensity (a.u.)"},
      {"sequence": "AACCCTTCTTCCATATGATGTGGCTAATTTTGAAGATGTACGGAGTCACCTAGTGCAG", "binding signal": "8830 fluorescence intensity (a.u.)"},
      {"sequence": "CTTATGTCGAGCAGGATATTGGACGTCTTGATGTCACGGTCGGAGTCACCTAGTGCAG", "binding signal": "3570 fluorescence intensity (a.u.)"},
      {"sequence": "GAAGTTTGCCTTGTCGGCCGTCGTGTCCTTCTGCCGCTAACGGAGTCACCTAGTGCAG", "binding signal": "3980 fluorescence intensity (a.u.)"},
      {"sequence": "TTGTCGCAGGTTGCTGACTGTTCCTCGAGGGAGTTCTCGGCGGAGTCACCTAGTGCAG", "binding signal": "6980 fluorescence intensity (a.u.)"},
      {"sequence": "TCCTCTGTCTCCTCCCTCATCCATCGAGCACCGAGCTCTGCGGAGTCACCTAGTGCAG", "binding signal": "3640 fluorescence intensity (a.u.)"},
      {"sequence": "GCTTCAAGATTGGTGAGAATACAGGTGGCACGATGGTTCCCGGAGTCACCTAGTGCAG", "binding signal": "3870 fluorescence intensity (a.u.)"},
      {"sequence": "GTCGGGCGCCACCACCGCATCCTCCGCCATCCCCGCGCCGCGGAGTCACCTAGTGCAG", "binding signal": "3900 fluorescence intensity (a.u.)"},
      {"sequence": "GTAGGTTGTGCATTGATAAGGGTGAGTGTGCACGTGAACGCGGAGTCACCTAGTGCAG", "binding signal": "4670 fluorescence intensity (a.u.)"},
      {"sequence": "TCTGCTCTTCTGCTTCTTCTCTTCAGCCTCAAGATTTGTTCGGAGTCACCTAGTGCAG", "binding signal": "23600 fluorescence intensity (a.u.)"},
      {"sequence": "TACCTCTTCAGTACAGCTGCAGCTGCTGACTGCTCACTACCGGAGTCACCTAGTGCAG", "binding signal": "4340 fluorescence intensity (a.u.)"},
      {"sequence": "ACGGCACCACCTCCATACGTCACCGGGAGGACCCAACTGCCGGAGTCACCTAGTGCAG", "binding signal": "5150 fluorescence intensity (a.u.)"},
      {"sequence": "ACAAAACGTGGCGATTAACCAAACACCCCTTGATCCATGGCGGAGTCACCTAGTGCAG", "binding signal": "3640 fluorescence intensity (a.u.)"},
      {"sequence": "AGTCGCCTGACACCAGTCCATACGCATGTCACTGAAATTGCGGAGTCACCTAGTGCAG", "binding signal": "4250 fluorescence intensity (a.u.)"},
      {"sequence": "TTACTTTAAAATGTGAGGATGTAATTGGCAGCAGCTCAAACGGAGTCACCTAGTGCAG", "binding signal": "3710 fluorescence intensity (a.u.)"},
      {"sequence": "CCAAATCCGGCGCGCTGTGTCACCAAATCGCCATATCTCACGGAGTCACCTAGTGCAG", "binding signal": "4430 fluorescence intensity (a.u.)"},
      {"sequence": "GGTGCCCTCGACGAGGAGGCCGATGCCGTTGATGGTGACGCGGAGTCACCTAGTGCAG", "binding signal": "5610 fluorescence intensity (a.u.)"},
      {"sequence": "CGGCCACGAACTCCGCCGCCGCCGCCTCCTCCCCGTCGCCCGGAGTCACCTAGTGCAG", "binding signal": "5120 fluorescence intensity (a.u.)"},
      {"sequence": "GTGGGTTGGTTGGGCCTGTTCAACGTGGTGTAGCGTTGATCGGAGTCACCTAGTGCAG", "binding signal": "3380 fluorescence intensity (a.u.)"},
      {"sequence": "CTCCAGCGTCTGCTACAGTGACGCAATCATGCAATCATTTCGGAGTCACCTAGTGCAG", "binding signal": "3840 fluorescence intensity (a.u.)"},
      {"sequence": "AAATTCTTACTCGTGATGATGTGTACGAATCTCAAACATTCGGAGTCACCTAGTGCAG", "binding signal": "8680 fluorescence intensity (a.u.)"},
      {"sequence": "CCTTTCCAGAGCGTCTCGGTCACGTAACAAGAACCTCACTCGGAGTCACCTAGTGCAG", "binding signal": "3140 fluorescence intensity (a.u.)"},
      {"sequence": "CAAACGTGTCAGATTACACGTGGCTCGGTCAACGAATGGCCGGAGTCACCTAGTGCAG", "binding signal": "14500 fluorescence intensity (a.u.)"},
      {"sequence": "ATGCATATATACGTGTACGTACGTGCTGTTAGTGTTAGCTCGGAGTCACCTAGTGCAG", "binding signal": "6860 fluorescence intensity (a.u.)"},
      {"sequence": "TCTTCTATTGACGCCCGTGGTGACTTCATCGATCTAGAGACGGAGTCACCTAGTGCAG", "binding signal": "4120 fluorescence intensity (a.u.)"},
      {"sequence": "TAAAGACCTCACACACGTTGCAACGTACTACGAGCTTTTCCGGAGTCACCTAGTGCAG", "binding signal": "3160 fluorescence intensity (a.u.)"},
      {"sequence": "TCCCATCCTAGCCGTCGGTTCCAAATCTGACGGCATCAAGCGGAGTCACCTAGTGCAG", "binding signal": "3250 fluorescence intensity (a.u.)"},
      {"sequence": "AGTCGCCTCCTCGCACCTACTACCCTACTAGGTCATGCCACGGAGTCACCTAGTGCAG", "binding signal": "3910 fluorescence intensity (a.u.)"},
      {"sequence": "ACCTGGGCGGATACTACGTCACCCCGGAGCTCTGCAAGTCCGGAGTCACCTAGTGCAG", "binding signal": "6570 fluorescence intensity (a.u.)"},
      {"sequence": "CTAGAACCAGGTTTAGGAATAAAATTTGGGAGAGTATATTCGGAGTCACCTAGTGCAG", "binding signal": "3370 fluorescence intensity (a.u.)"},
      {"sequence": "ATCTGTCTTTGTTTGAAATCAGATTGGTTCAAAACAAGCGCGGAGTCACCTAGTGCAG", "binding signal": "21900 fluorescence intensity (a.u.)"},
      {"sequence": "ATACAACTAAATTAAATGGTTGGACTCCTCATGTTGAAGACGGAGTCACCTAGTGCAG", "binding signal": "3630 fluorescence intensity (a.u.)"},
      {"sequence": "CAATTTTAAACGGACTGGGAGCTGTCCATGCTGACCCATGCGGAGTCACCTAGTGCAG", "binding signal": "3740 fluorescence intensity (a.u.)"},
      {"sequence": "ATGGTGGTTGTGTCTTATATTTTGGAATGGAGGGACTTATCGGAGTCACCTAGTGCAG", "binding signal": "21300 fluorescence intensity (a.u.)"},
      {"sequence": "TGCCGCTCTACCGTCTTCTCGTCTCACGCGACGTGTCGTACGGAGTCACCTAGTGCAG", "binding signal": "3790 fluorescence intensity (a.u.)"},
      {"sequence": "ACACTGCCACGTCAGCGCCACGTTAGCAAAACCGTCCTCCCGGAGTCACCTAGTGCAG", "binding signal": "35500 fluorescence intensity (a.u.)"},
      {"sequence": "AGGTACGCACACATGTCCACGTGCCCGGCTCTCCCGGCACCGGAGTCACCTAGTGCAG", "binding signal": "3880 fluorescence intensity (a.u.)"},
      {"sequence": "ATTTTGTAGGTTCTAGCCACGTAATTGCGCGTGCTACTCACGGAGTCACCTAGTGCAG", "binding signal": "6950 fluorescence intensity (a.u.)"},
      {"sequence": "GAATGTTTGTCCACCAACCAGCAATGATGTGGACTTGTTGCGGAGTCACCTAGTGCAG", "binding signal": "3140 fluorescence intensity (a.u.)"},
      {"sequence": "TGATGATGTTGTCATTGCTCCGGTGCGCTCTTTGTGTGTGCGGAGTCACCTAGTGCAG", "binding signal": "4470 fluorescence intensity (a.u.)"},
      {"sequence": "TTGAACGCAGAGGAATGTATGACTGTATGAGACCCCAAGACGGAGTCACCTAGTGCAG", "binding signal": "5280 fluorescence intensity (a.u.)"},
      {"sequence": "GAGTCGTTCGCGCCGTTCGGCCAGGTCATCGCCGCCACACCGGAGTCACCTAGTGCAG", "binding signal": "8670 fluorescence intensity (a.u.)"},
      {"sequence": "ACAACAGGAATCCACCGTGACTTGCTTCACCACCACCCTGCGGAGTCACCTAGTGCAG", "binding signal": "3160 fluorescence intensity (a.u.)"},
      {"sequence": "TCAGCGAATTGGTACGTACCCTTGTACGTGTTGACGCCATCGGAGTCACCTAGTGCAG", "binding signal": "3650 fluorescence intensity (a.u.)"},
      {"sequence": "TGTGCAATGTCATCAATTTATGTATTGTGTGTACCCTATCCGGAGTCACCTAGTGCAG", "binding signal": "6160 fluorescence intensity (a.u.)"},
      {"sequence": "AGTACATAACATACCTTCATCTTTCGACCAGCTCATCTTTCGGAGTCACCTAGTGCAG", "binding signal": "3830 fluorescence intensity (a.u.)"},
      {"sequence": "CAAACTGCAACTCCAATATCACATTTTCTTTCTCTTTTCCCGGAGTCACCTAGTGCAG", "binding signal": "19700 fluorescence intensity (a.u.)"},
      {"sequence": "GTTCTGCGCGGCGCACCCCACCGACGGCCGCGTCCGCGTCCGGAGTCACCTAGTGCAG", "binding signal": "3260 fluorescence intensity (a.u.)"},
      {"sequence": "ATGTCGAGCACCTGACCGCCGGTCACGTAGCGGCGGCGGCCGGAGTCACCTAGTGCAG", "binding signal": "3620 fluorescence intensity (a.u.)"},
      {"sequence": "GCTAGCTTGATGACCTAGCAGCTTCATCGATTCTTGCGTGCGGAGTCACCTAGTGCAG", "binding signal": "3950 fluorescence intensity (a.u.)"},
      {"sequence": "CGGCGACTACTACCTCATCGTCGTTGCTGACACCGAGGTCCGGAGTCACCTAGTGCAG", "binding signal": "5440 fluorescence intensity (a.u.)"},
      {"sequence": "GGGAAAGATGTCGTGGACTTGATTATACATACCGGTCAGACGGAGTCACCTAGTGCAG", "binding signal": "3290 fluorescence intensity (a.u.)"},
      {"sequence": "CTAAAGATAATGCTATGCAAGTCGAGACAGCTCGATGAGCCGGAGTCACCTAGTGCAG", "binding signal": "3230 fluorescence intensity (a.u.)"}
    ]}
  ]
}
